{"source": "PubChem BioAssay AID652259, Drosophila RNAi Screening Center | 2013", "test": "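Knock-downs that push a Wingless-driven reporter up or down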 (primary screen)", "cell system": "Drosophila clone 8 imaginal disc epithelial cells", "knock-down reagent": "long dsRNA against Drosophila genes", "conditions": "pathway stimulated by co-transfected Wingless expression plasmid", "read-out": "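Dual luciferase reads per well after Wingless plasmid stimulation: reporter firefly light and Renilla control light; activity is firefly divided by Renilla, a ratio not deposited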", "scale": "firefly reporter light: higher = more Wg reporter light, before normalisation; Renilla control light: higher = more transfected or surviving cells", "call rule": "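a knock-down is a candidate when at least two out of four statistical tests show it departing from its plate mean; one test alone signals a weak candidate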", "calls": "active = candidate regulator (raises or lowers reporter); inactive = not a candidate", "note": "The screen tested about 22,000 reagents; this is a random part of those with a known target gene and a result. Of all reagents, 233 (1.1%) got an active call. 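Light values are raw, unnormalised plate reads; the ratio scores behind the reporter calls were not deposited.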 A plus sign joins genes that one reagent is predicted to hit. Not stated in the record: the amount of reagent, the time to read-out, the dose of the treatment."}
{"Gene":"Prps (GeneID 39132)","DRSC id":"DRSC08994","firefly reporter light, replicate 1":2752,"Renilla control light, replicate 1":1600,"activity call":"inactive"}
{"Gene":"Prps (GeneID 39132)","DRSC id":"DRSC10707","firefly reporter light, replicate 1":3173,"Renilla control light, replicate 1":2016,"activity call":"inactive"}
{"Gene":"Prps (GeneID 39132)","DRSC id":"DRSC10708","firefly reporter light, replicate 1":7186,"Renilla control light, replicate 1":3331,"activity call":"inactive"}
{"Gene":"Bx42 (GeneID 31840)","DRSC id":"DRSC17743","firefly reporter light, replicate 1":2647,"firefly reporter light, replicate 2":5392,"Renilla control light, replicate 1":349,"Renilla control light, replicate 2":711,"activity call":"inactive"}
{"Gene":"cdm (GeneID 42171)","DRSC id":"DRSC16213","firefly reporter light, replicate 1":2176,"firefly reporter light, replicate 2":4313,"Renilla control light, replicate 1":1511,"Renilla control light, replicate 2":1905,"activity call":"inactive"}
{"Gene":"Argk2 (GeneID 39040)","DRSC id":"DRSC10483","firefly reporter light, replicate 1":1553,"firefly reporter light, replicate 2":8342,"Renilla control light, replicate 1":1556,"Renilla control light, replicate 2":3524,"activity call":"inactive"}
{"Gene":"GstD4 (GeneID 48337)","DRSC id":"DRSC16685","firefly reporter light, replicate 1":20544,"Renilla control light, replicate 1":5207,"activity call":"inactive"}
{"Gene":"phtf (GeneID 35583)","DRSC id":"DRSC05023","firefly reporter light, replicate 1":13888,"Renilla control light, replicate 1":4128,"activity call":"inactive"}
{"Gene":"CG4660 (GeneID 31542)","DRSC id":"DRSC18378","firefly reporter light, replicate 1":19953,"Renilla control light, replicate 1":9138,"activity call":"inactive"}
{"Gene":"CG17681 (GeneID 35086)","DRSC id":"DRSC02632","firefly reporter light, replicate 1":3396,"firefly reporter light, replicate 2":4470,"Renilla control light, replicate 1":1308,"Renilla control light, replicate 2":2640,"activity call":"inactive"}
{"Gene":"primo-2 + primo-1","DRSC id":"DRSC16511","firefly reporter light, replicate 1":21680,"Renilla control light, replicate 1":5187,"activity call":"inactive"}
{"Gene":"CG8476 (GeneID 41624)","DRSC id":"DRSC16426","firefly reporter light, replicate 1":14579,"Renilla control light, replicate 1":2653,"activity call":"inactive"}

A few values from above.
Entry of CG4660 (GeneID 31542) [DRSC18378] in “firefly reporter light, replicate 1”: 19953
cdm (GeneID 42171) [DRSC16213], Renilla control light, replicate 2 = 1905
Result for Bx42 (GeneID 31840) [DRSC17743] in “firefly reporter light, replicate 1”: 2647
Value of phtf (GeneID 35583) [DRSC05023] under “firefly reporter light, replicate 1”: 13888
Prps (GeneID 39132) [DRSC10708], Renilla control light, replicate 1 → 3331

The list goes on:
{"Gene":"hbs (GeneID 44129)","DRSC id":"DRSC07627","firefly reporter light, replicate 1":8903,"Renilla control light, replicate 1":3688,"activity call":"inactive"}
{"Gene":"glob2 (GeneID 40807)","DRSC id":"DRSC12560","firefly reporter light, replicate 1":13372,"Renilla control light, replicate 1":4313,"activity call":"inactive"}
{"Gene":"Mlp84B (GeneID 40849)","DRSC id":"DRSC12596","firefly reporter light, replicate 1":11539,"Renilla control light, replicate 1":3200,"activity call":"inactive"}
{"Gene":"Cht7 + tRNA:Cys-GCA-1-4 + tRNA:Lys-CTT-1-13","DRSC id":"DRSC08021","firefly reporter light, replicate 1":6034,"Renilla control light, replicate 1":2746,"activity call":"inactive"}
{"Gene":"CG11044 (GeneID 37281)","DRSC id":"DRSC06026","firefly reporter light, replicate 1":12605,"Renilla control light, replicate 1":2432,"activity call":"inactive"}
{"Gene":"Rac1 (GeneID 38146)","DRSC id":"DRSC08688","firefly reporter light, replicate 1":4080,"Renilla control light, replicate 1":2166,"activity call":"inactive"}
{"Gene":"Cog6 (GeneID 35953)","DRSC id":"DRSC06806","firefly reporter light, replicate 1":11660,"Renilla control light, replicate 1":2901,"activity call":"inactive"}
{"Gene":"stj (GeneID 36526)","DRSC id":"DRSC06124","firefly reporter light, replicate 1":12667,"Renilla control light, replicate 1":2672,"activity call":"inactive"}
{"Gene":"Gem2 (GeneID 40087)","DRSC id":"DRSC09721","firefly reporter light, replicate 1":4378,"Renilla control light, replicate 1":1972,"activity call":"inactive"}
{"Gene":"dila (GeneID 36010)","DRSC id":"DRSC06607","firefly reporter light, replicate 1":4171,"firefly reporter light, replicate 2":13011,"Renilla control light, replicate 1":1575,"Renilla control light, replicate 2":5213,"activity call":"inactive"}
{"Gene":"CG6928 (GeneID 39367)","DRSC id":"DRSC10749","firefly reporter light, replicate 1":3440,"Renilla control light, replicate 1":2020,"activity call":"inactive"}
{"Gene":"CG5397 (GeneID 33313)","DRSC id":"DRSC00683","firefly reporter light, replicate 1":7459,"Renilla control light, replicate 1":4215,"activity call":"inactive"}
{"Gene":"ctrip (GeneID 40596)","DRSC id":"DRSC12242","firefly reporter light, replicate 1":12375,"Renilla control light, replicate 1":3568,"activity call":"inactive"}
{"Gene":"ctrip (GeneID 40596)","DRSC id":"DRSC12287","firefly reporter light, replicate 1":4300,"Renilla control light, replicate 1":1049,"activity call":"inactive"}
{"Gene":"ctrip (GeneID 40596)","DRSC id":"DRSC22449","firefly reporter light, replicate 1":3.74e5,"firefly reporter light, replicate 2":3.86e5,"Renilla control light, replicate 1":1.40e5,"Renilla control light, replicate 2":1.38e5,"activity call":"inactive"}
{"Gene":"CG34232 (GeneID 5740195)","DRSC id":"DRSC05332","firefly reporter light, replicate 1":13522,"Renilla control light, replicate 1":11206,"activity call":"inactive"}
{"Gene":"CG8180 (GeneID 36713)","DRSC id":"DRSC07092","firefly reporter light, replicate 1":13602,"Renilla control light, replicate 1":3969,"activity call":"inactive"}
{"Gene":"CG8180 (GeneID 36713)","DRSC id":"DRSC07093","firefly reporter light, replicate 1":4776,"Renilla control light, replicate 1":1225,"activity call":"inactive"}
{"Gene":"aust (GeneID 34244)","DRSC id":"DRSC02558","firefly reporter light, replicate 1":1808,"firefly reporter light, replicate 2":5012,"Renilla control light, replicate 1":917,"Renilla control light, replicate 2":2157,"activity call":"inactive"}
{"Gene":"Cpsf6 (GeneID 38937)","DRSC id":"DRSC10781","firefly reporter light, replicate 1":5241,"Renilla control light, replicate 1":1533,"activity call":"inactive"}
